Measurements published in patent publication US10292395B2, “3H-pyrrolopyridine compound, N-oxide thereof or salt thereof, agricultural and horticultural insecticide comprising the compound and method for using the same” (Nihon Nohyaku Co., Ltd., priority 2015, dated 2019).
Some of these results come from one statement about several compounds together.

Columns and labels:
Assay type in all cases: in vivo
Laodelphax striatella = assay: Insecticidal test on Laodelphax striatella (rice seedling dip); conditions: 500 ppm, rice seedlings dipped 30 seconds, 3rd-instar larvae, 8 days after inoculation
Excerpt: Insecticidal Test on Laodelphax striatella
The condensed heterocyclic compounds represented by the general formula (1) of the present invention or salts thereof were separately dispersed in water and diluted to 500 ppm, and rice plant seedlings (variety: Nihonbare) were dipped in the agrochemical dispersions for 30 seconds. After air-dried, each seedling was put into a separate glass test tube and inoculated with ten 3rd-instar larvae of Laodelphax striatella, and then the glass test tubes were capped with cotton plugs. At 8 days after the inoculation, the numbers of surviving larvae and dead larvae were counted, the corrected mortality rate was calculated according to the formula shown below, and the insecticidal effect was evaluated according to the criteria of Test Example 1. Corrected mortality rate (%)=100×(Survival rate in a non-treatment plot−Survival rate in a treatment plot)/Survival rate in a non-treatment plot [Math. 2]

Plutella xylostella = assay: Insecticidal test on Plutella xylostella (dip of Chinese cabbage seedlings with laid eggs); conditions: 500 ppm, seedlings with laid eggs dipped about 30 seconds, 25° C., 6 days after dip treatment
Excerpt: Insecticidal Test on Plutella xylostella
Adults of Plutella xylostella were released onto Chinese cabbage seedlings and allowed to lay eggs thereon. At 2 days after the release of the adults, the Chinese cabbage seedlings with laid eggs were dipped for about 30 seconds in agrochemical dispersions diluted to 500 ppm, each of which contained a different condensed heterocyclic compound represented by the general formula (1) of the present invention as an active ingredient. After air-dried, the seedlings were kept in a thermostatic chamber at 25° C. At 6 days after the dip treatment, the number of hatched larvae per plot was counted, the mortality rate was calculated according to the formula shown below, and the insecticidal effect was evaluated according to the criteria of Test Example 1. This test was conducted in triplicate using 10 adults of Plutella xylostella per plot. Corrected mortality rate (%)=100×(Number of hatched larvae in a non-treatment plot−Number of hatched larvae in a treatment plot)/Number of hatched larvae in a non-treatment plot [Math. 3]

Myzus persicae = assay: Test of control effect on Myzus persicae (foliar application to potted Chinese cabbage); conditions: 500 ppm, Chinese cabbage plants, 6 days after application

CCS(=O)(=O)c1cc(C2CC2)cnc1C1=Nc2cc(C(F)(F)F)cnc2C1(F)Cl (racemic) [Compound 1-182]
A (the control rate is 100%): insecticidal effect (corrected mortality rate), activity level (Laodelphax striatella) | insecticidal effect (corrected mortality rate), activity level (Plutella xylostella) | control effect (control rate), activity level (Myzus persicae)

CCS(=O)(=O)c1cc(-c2cc(F)cc(F)c2)cnc1C1=Nc2cc(C(F)(F)F)cnc2C1(F)Cl (racemic) [Compound 1-210]
A (the control rate is 100%): insecticidal effect (corrected mortality rate), activity level (Laodelphax striatella) | insecticidal effect (corrected mortality rate), activity level (Plutella xylostella) | control effect (control rate), activity level (Myzus persicae)

CCOC(=O)C1(F)C(c2ccc(C(F)(F)F)cc2[S+]([O-])CC)=Nc2cc(C(F)(F)F)cnc21 (stereo not drawn) [Compound 1-2]
A (the control rate is 100%): insecticidal effect (corrected mortality rate), activity level (Laodelphax striatella) | insecticidal effect (corrected mortality rate), activity level (Plutella xylostella) | control effect (control rate), activity level (Myzus persicae)

CCOC(=O)C1(F)C(c2ccc(C(F)(F)F)cc2S(=O)(=O)CC)=Nc2cc(C(F)(F)F)cnc21 (stereo not drawn) [Compound 1-3]
A (the control rate is 100%): insecticidal effect (corrected mortality rate), activity level (Laodelphax striatella) | insecticidal effect (corrected mortality rate), activity level (Plutella xylostella) | control effect (control rate), activity level (Myzus persicae)

CCS(=O)(=O)c1cc(C(F)(F)F)ccc1C1=Nc2cc(C(F)(F)C(F)(F)F)cnc2C1(F)F [Compound 1-4]
A (the control rate is 100%): insecticidal effect (corrected mortality rate), activity level (Laodelphax striatella) | insecticidal effect (corrected mortality rate), activity level (Plutella xylostella) | control effect (control rate), activity level (Myzus persicae)

CCS(=O)(=O)c1cc(C(F)(F)F)ccc1C1=Nc2cc(C(F)(F)F)cnc2C1(F)C#N (stereo not drawn) [Compound 1-5]
A (the control rate is 100%): insecticidal effect (corrected mortality rate), activity level (Laodelphax striatella) | insecticidal effect (corrected mortality rate), activity level (Plutella xylostella) | control effect (control rate), activity level (Myzus persicae)

CCS(=O)(=O)c1cc(C(F)(F)F)ccc1C1=Nc2cc(C(F)(F)F)cnc2C1(F)C(=O)OC (stereo not drawn) [Compound 1-6]
A (the control rate is 100%): insecticidal effect (corrected mortality rate), activity level (Laodelphax striatella) | insecticidal effect (corrected mortality rate), activity level (Plutella xylostella) | control effect (control rate), activity level (Myzus persicae)

CC[S+]([O-])c1cc(C(F)(F)F)ccc1C1=Nc2cc(C(F)(F)F)cnc2C1(F)C(=O)OC (stereo not drawn) [Compound 1-7]
A (the control rate is 100%): insecticidal effect (corrected mortality rate), activity level (Laodelphax striatella) | insecticidal effect (corrected mortality rate), activity level (Plutella xylostella) | control effect (control rate), activity level (Myzus persicae)

CCS(=O)(=O)c1cc(I)cnc1C1=Nc2cc(C(F)(F)F)cnc2C1(F)F [Compound 1-11]
A (the control rate is 100%): insecticidal effect (corrected mortality rate), activity level (Laodelphax striatella) | insecticidal effect (corrected mortality rate), activity level (Plutella xylostella) | control effect (control rate), activity level (Myzus persicae)

CC[S+]([O-])c1cc(I)cnc1C1=Nc2cc(C(F)(F)F)cnc2C1(F)F (stereo not drawn) [Compound 1-12]
A (the control rate is 100%): insecticidal effect (corrected mortality rate), activity level (Laodelphax striatella) | insecticidal effect (corrected mortality rate), activity level (Plutella xylostella) | control effect (control rate), activity level (Myzus persicae)

CC[S+]([O-])c1cc(I)cnc1C1=Nc2cc(C(F)(F)F)c[n+]([O-])c2C1(F)F (stereo not drawn) [Compound 1-13]
A (the control rate is 100%): insecticidal effect (corrected mortality rate), activity level (Laodelphax striatella) | insecticidal effect (corrected mortality rate), activity level (Plutella xylostella) | control effect (control rate), activity level (Myzus persicae)

CCSc1cc(C2CC2)cnc1C1=Nc2cc(C(F)(F)F)cnc2C1(F)F [Compound 1-14]
A (the control rate is 100%): insecticidal effect (corrected mortality rate), activity level (Laodelphax striatella) | insecticidal effect (corrected mortality rate), activity level (Plutella xylostella) | control effect (control rate), activity level (Myzus persicae)

CC[S+]([O-])c1cc(C2CC2)cnc1C1=Nc2cc(C(F)(F)F)cnc2C1(F)F (stereo not drawn) [Compound 1-15]
A (the control rate is 100%): insecticidal effect (corrected mortality rate), activity level (Laodelphax striatella) | insecticidal effect (corrected mortality rate), activity level (Plutella xylostella) | control effect (control rate), activity level (Myzus persicae)

CCS(=O)(=O)c1cc(C2CC2)cnc1C1=Nc2cc(C(F)(F)F)cnc2C1(F)F [Compound 1-16]
A (the control rate is 100%): insecticidal effect (corrected mortality rate), activity level (Laodelphax striatella) | insecticidal effect (corrected mortality rate), activity level (Plutella xylostella) | control effect (control rate), activity level (Myzus persicae)

CCS(=O)(=O)c1cc(-c2cccc(F)c2)cnc1C1=Nc2cc(C(F)(F)F)cnc2C1(F)F [Compound 1-18]
A (the control rate is 100%): insecticidal effect (corrected mortality rate), activity level (Laodelphax striatella) | insecticidal effect (corrected mortality rate), activity level (Plutella xylostella) | control effect (control rate), activity level (Myzus persicae)

CCS(=O)(=O)c1cc(-c2ccc(C(F)(F)F)cc2)cnc1C1=Nc2cc(C(F)(F)F)cnc2C1(F)F [Compound 1-21]
A (the control rate is 100%): insecticidal effect (corrected mortality rate), activity level (Laodelphax striatella) | insecticidal effect (corrected mortality rate), activity level (Plutella xylostella) | control effect (control rate), activity level (Myzus persicae)

CCS(=O)(=O)c1cc(C=NOCC(F)(F)F)cnc1C1=Nc2cc(C(F)(F)F)cnc2C1(F)F [Compound 1-34]
A (the control rate is 100%): insecticidal effect (corrected mortality rate), activity level (Laodelphax striatella) | insecticidal effect (corrected mortality rate), activity level (Plutella xylostella) | control effect (control rate), activity level (Myzus persicae)

CCOc1cnc(C2=Nc3cc(C(F)(F)F)cnc3C2(F)F)c(S(=O)(=O)CC)c1 [Compound 1-71]
A (the control rate is 100%): insecticidal effect (corrected mortality rate), activity level (Laodelphax striatella) | insecticidal effect (corrected mortality rate), activity level (Plutella xylostella) | control effect (control rate), activity level (Myzus persicae)

CCS(=O)(=O)c1cc(OCc2ccc(C(F)(F)F)cc2)cnc1C1=Nc2cc(C(F)(F)F)cnc2C1(F)F [Compound 1-81]
A (the control rate is 100%): insecticidal effect (corrected mortality rate), activity level (Laodelphax striatella) | insecticidal effect (corrected mortality rate), activity level (Plutella xylostella) | control effect (control rate), activity level (Myzus persicae)

CCS(=O)(=O)c1ccc(-c2cccc(F)c2)nc1C1=Nc2cc(C(F)(F)F)cnc2C1(F)F [Compound 1-99]
A (the control rate is 100%): insecticidal effect (corrected mortality rate), activity level (Laodelphax striatella) | insecticidal effect (corrected mortality rate), activity level (Plutella xylostella) | control effect (control rate), activity level (Myzus persicae)

CCS(=O)(=O)c1ccc(-c2ccc(F)cc2)nc1C1=Nc2cc(C(F)(F)F)cnc2C1(F)F [Compound 1-100]
A (the control rate is 100%): insecticidal effect (corrected mortality rate), activity level (Laodelphax striatella) | insecticidal effect (corrected mortality rate), activity level (Plutella xylostella) | control effect (control rate), activity level (Myzus persicae)

CCS(=O)(=O)c1ccc(-n2cncn2)nc1C1=Nc2cc(C(F)(F)F)cnc2C1(F)F [Compound 1-109]
A (the control rate is 100%): insecticidal effect (corrected mortality rate), activity level (Laodelphax striatella) | insecticidal effect (corrected mortality rate), activity level (Plutella xylostella) | control effect (control rate), activity level (Myzus persicae)

CCS(=O)(=O)c1cc(-c2ccc(F)cc2)cnc1C1=Nc2cc(C(F)(F)F)cnc2C1(F)Cl (stereo not drawn) [Compound 1-169]
A (the control rate is 100%): insecticidal effect (corrected mortality rate), activity level (Laodelphax striatella) | insecticidal effect (corrected mortality rate), activity level (Plutella xylostella) | control effect (control rate), activity level (Myzus persicae)

CCS(=O)(=O)c1cc(-c2cccc(C(F)(F)F)c2)cnc1C1=Nc2cc(C(F)(F)F)cnc2C1(F)Cl (stereo not drawn) [Compound 1-171]
A (the control rate is 100%): insecticidal effect (corrected mortality rate), activity level (Laodelphax striatella) | insecticidal effect (corrected mortality rate), activity level (Plutella xylostella) | control effect (control rate), activity level (Myzus persicae)

CCS(=O)(=O)c1cc(-c2ccc(C(F)(F)F)cc2)cnc1C1=Nc2cc(C(F)(F)F)cnc2C1(Cl)Cl [Compound 1-174]
A (the control rate is 100%): insecticidal effect (corrected mortality rate), activity level (Laodelphax striatella) | insecticidal effect (corrected mortality rate), activity level (Plutella xylostella) | control effect (control rate), activity level (Myzus persicae)

CCS(=O)(=O)c1cc(C(F)(F)F)cnc1C1=Nc2cc(C(F)(F)F)cnc2C1(Cl)Cl [Compound 1-176]
A (the control rate is 100%): insecticidal effect (corrected mortality rate), activity level (Laodelphax striatella) | insecticidal effect (corrected mortality rate), activity level (Plutella xylostella) | control effect (control rate), activity level (Myzus persicae)

CCS(=O)(=O)c1cc(C(F)(F)F)cnc1C1=Nc2cc(C(F)(F)F)cnc2C1(C)F (stereo not drawn) [Compound 1-177]
A (the control rate is 100%): insecticidal effect (corrected mortality rate), activity level (Laodelphax striatella) | insecticidal effect (corrected mortality rate), activity level (Plutella xylostella) | control effect (control rate), activity level (Myzus persicae)
